Data as given in PubChem BioAssay AID1671195 (Yale University, 2021)
This is a random part of about 22,000 reagents. About 1,510 of them (6.9%) count as active. 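Active includes knockdowns raising or lowering LDL uptake; positive z-scores mean more uptake, negative mean less.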

- Purpose: 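Genes whose knockdown alters LDL uptake in liver cancer cells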 (primary screen)
- Cell system: human Huh7 hepatoma cells
- Reagents: siRNA pool against human genes, 18 nM
- Timing: about 2 to 2.5 days of knockdown, then 8 h LDL uptake
- Challenge: DiI-labelled LDL at 30 µg/ml for 8 h, in lipoprotein-deficient serum medium
- Read-out: 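Fluorescent LDL signal imaged in cells, scaled to the plate median, robust z-score for each replicate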
- Scale: robust z-score: higher = more LDL uptake after knockdown
- Rule for the call: 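Active when two or more replicates show a robust z-score above 2 or below -2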

gene knocked down	robust z-score, replicate 1	robust z-score, replicate 2	robust z-score, replicate 3	call
ARVP6125 (retired record)	-0.779	-0.487	-0.523	inactive
ABCB6	0.0794	0.263	-0.215	inactive
PILRB	-3.48	-1.45	-0.504	inactive
FCAR	1.02	0.855	1.22	inactive
ITM2A	0.739	0.273	-0.49	inactive
DNAJC11	1.08	0.609	1.21	inactive
PTPRE	0.491	0.343	0.922	inactive
RFPL3	0.28	-0.176	0.694	inactive
EIF5A	-0.456	-0.352	0.224	inactive
ATG101	1.01	1.04	1.69	inactive
LOC442065 (retired record)	-2.26	-2.54	-2.38	active
JMJD7-PLA2G4B	0.424	-1.66	0.454	inactive
EEF1G	-0.605	-0.99	-0.83	inactive
KCNAB3	0.968	0.855	0.713	inactive
ANKEF1	2.71	2.48	1.83	active
LOC391459 (retired record)	-0.834	-1.19	-1.32	inactive
KCNA7	-1.18	-0.245	-1.62	inactive
LPAR3	1.76	3.74	2.67	active
COLGALT1	1.41	1.73	1.95	inactive
ABCC11	0.961	0.927	0.604	inactive
GPR146	-2.07	0.833	0.236	inactive
FCN3	-0.62	-0.783	-1.02	inactive
RFT1	1.56	0.923	0.838	inactive
TSNARE1	-0.499	-1.02	-0.901	inactive
RPL22P11	1.14	1.96	1.81	inactive
SH3GL2	1.59	-0.213	0.276	inactive
ZBTB1	-0.42	-0.634	-0.664	inactive
EIF4H	-0.0675	0.0111	-0.263	inactive
FAM204A	4.5	2.84	1.65	active
ARFIP2	-1.19	-0.635	0.559	inactive
SNHG12	-0.481	-0.000126	0.174	inactive
DPP4	0.16	-0.616	-0.364	inactive
TBC1D3P5	0.0884	0.364	0.0265	inactive
FBXL18	1.44	1.93	1.33	inactive
CFAP43	-0.272	-0.741	-0.739	inactive
LINC03062	0.278	-0.167	0.523	inactive
PSMD4	2.32	2.3	1.52	active
ZNF716	1.78	2.39	0.459	inactive
CLDN23	0.37	-0.187	-0.149	inactive
RPL34	-1.13	-0.94	-1.53	inactive
OR7A5	0.162	1.06	-1.8	inactive
LOC389330 (retired record)	0.355	0.746	1.14	inactive
FURIN	-0.416	0.131	-0.267	inactive
LOC442119 (retired record)	0.11	0.369	0.537	inactive
EDEM3	-0.244	0.134	-0.0248	inactive
AGGF1	-0.343	-0.442	0.993	inactive
DALRD3	0.282	-0.0404	1.6	inactive
PPM1K	0.611	0.837	0.697	inactive
CMTM4	-1.27	-0.0208	-0.778	inactive
LOC400523 (retired record)	-0.229	-0.597	-0.724	inactive
HDGFL1	1.63	1.09	1.14	inactive
GPD2	-0.309	-0.576	-0.266	inactive
GPR32	2.35	1.25	1.89	inactive
COBLL1	1.75	1.16	1.07	inactive
DPYD	0.688	0.741	0.956	inactive
SEC13	0.642	2.21	-0.245	inactive
LOC441181 (retired record)	1.08	1.14	0.492	inactive
OR2D3	-0.152	-0.118	-0.412	inactive
STRADBP1	-0.052	0.0235	0.785	inactive
SLC25A20	1.46	-0.388	-2.78	inactive
TAAR6	-0.23	-1.02	0.318	inactive
DNASE1L3	0.399	0.466	0.814	inactive
SMIM22	-0.123	-0.241	-0.526	inactive
THAP6	-0.762	-0.52	-1.02	inactive
SYNGR4	-0.472	0.993	-0.695	inactive
VGLL1	0.377	-0.32	1.54	inactive
EPOR	-1.01	-0.349	-1.14	inactive
GNG12	-0.659	-0.662	-0.519	inactive
PDK1	-0.559	-0.812	-0.0511	inactive
GSPT2	0.0515	0.87	1.74	inactive
BSG	-0.411	0.0364	-0.405	inactive
GJB1	0.0149	-0.574	-0.709	inactive
SFTPD	-0.345	-1.62	-0.307	inactive
COL1A1	-0.538	-1.11	-0.938	inactive
ZNF271P	-0.323	-0.159	-0.91	inactive
DEFB106A	-0.165	0.0826	-0.0899	inactive
LOC441449 (retired record)	-0.977	-0.96	-1.18	inactive
EMP3	0.18	1.1	1.09	inactive
SYCP2L	1.04	1.06	1.45	inactive
LSM14B	-0.744	0.423	0.36	inactive
STRAP	3.34	2.19	1.64	active
HDAC7	0.4	0.35	1.9	inactive
CPSF6	2.16	1.2	1.62	inactive
OR3A1	1.19	0.854	1.21	inactive
UOX	0.44	0.377	0.485	inactive
TRMT5	-0.767	-0.771	2.05	inactive
ATG5	2.38	2.02	0.314	active

Laid out differently: results already given.
OR7A5
- robust z-score, replicate 1: 0.162
- robust z-score, replicate 2: 1.06
- robust z-score, replicate 3: -1.8
- call: inactive

LOC389330 (retired record)
- robust z-score, replicate 1: 0.355
- robust z-score, replicate 2: 0.746
- robust z-score, replicate 3: 1.14
- call: inactive

FURIN
- robust z-score, replicate 1: -0.416
- robust z-score, replicate 2: 0.131
- robust z-score, replicate 3: -0.267
- call: inactive

LOC442119 (retired record)
- robust z-score, replicate 1: 0.11
- robust z-score, replicate 2: 0.369
- robust z-score, replicate 3: 0.537
- call: inactive
